Experimental data reported in JP2006342173A.
No constants are given. Whether binding was seen depends on the method and setting. Some results given as binding are weak or reduced against the parent protein; the word gives no strength.

Protein sequences, listed by entry. Tags and fused reporters are not part of them. Residues count along the entry.
UniProt P25942, residues 21-277: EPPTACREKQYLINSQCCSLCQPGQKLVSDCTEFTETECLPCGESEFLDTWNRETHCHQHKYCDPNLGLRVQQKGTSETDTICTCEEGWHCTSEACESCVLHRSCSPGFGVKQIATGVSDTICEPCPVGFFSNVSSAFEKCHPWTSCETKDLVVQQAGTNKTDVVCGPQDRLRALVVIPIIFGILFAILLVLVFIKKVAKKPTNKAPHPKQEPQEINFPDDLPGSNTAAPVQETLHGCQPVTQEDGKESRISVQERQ

Target: ヒトCD40 (human CD40 expressed on cells) (human) (UniProt P25942)
Experiment: screening by ELISA (human CD40 mouse FC) and FACS (Ramos cells)

B1: F4-465抗体 (antibody, V domains shown)
VH: QVQLVQSGSELKKPGASVKVPCKASGYTFTSYAMNWVRQAPGQGLEWMGWINTNTGNPTYAQGFTGRFVFSLDTSVSTAYLQISSLKAEDTAVYYCAREVVPVAMRVTHYYYGMDVWGQGTTVTVSS
VL: SYELTQPPSVSVAPGQTASITCSGDKLGDNFTCWYQQKPGQSPVLVIFQDWKRRPGIPARFSGSKSGNTATLTISGTQAMDEADYYCQAWDISTVVFGGGT
**Q.** Which binding does the source give for B1 here?
**A.** binds
